Source: paper PMC3843698
Results are given in words; binding and its absence hold for the method and conditions named. In cells and extracts the contact can be indirect. Some binding calls cover weakened binding; strength is not graded here.

The chains behind the UniProt entries cited, without tags or fusion partners.
UniProt P9WNH7: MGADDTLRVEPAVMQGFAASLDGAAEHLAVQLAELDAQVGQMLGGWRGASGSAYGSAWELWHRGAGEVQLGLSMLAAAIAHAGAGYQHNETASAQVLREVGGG
UniProt I6Y3I6: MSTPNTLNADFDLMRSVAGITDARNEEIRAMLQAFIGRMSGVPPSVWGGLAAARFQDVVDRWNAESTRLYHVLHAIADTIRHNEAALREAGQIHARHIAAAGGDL
UniProt P9WNH9: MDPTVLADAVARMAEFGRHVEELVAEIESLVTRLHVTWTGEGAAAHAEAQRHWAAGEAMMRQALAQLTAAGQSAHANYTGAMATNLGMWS
UniProt I6YC53: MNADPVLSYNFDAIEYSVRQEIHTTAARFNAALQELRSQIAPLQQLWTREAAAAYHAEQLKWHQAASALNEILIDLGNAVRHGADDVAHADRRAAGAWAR

Tests used:
[1] = molecular target: EsxFmt with C-terminal His6 tag (expressed from pMAPLe3) (M. tuberculosis H37Rv) (UniProt P9WNH7); assay: pull-down; […]; buffer 4: 50 mM HEPES, […]
[2] = molecular target: EsxFmt with C-terminal His6 tag (expressed from pMAPLe3) (M. tuberculosis H37Rv) (UniProt P9WNH7); assay: pull-down; […]; buffer 3: 50 mM HEPES, pH 7.5, 1 M NaCl
[3] = molecular target: EsxFmt with C-terminal His6 tag (expressed from pMAPLe3) (M. tuberculosis H37Rv) (UniProt P9WNH7); assay: pull-down; […]; buffer 1: 50 mM HEPES, pH 7.5 or pH 7.8, 300 mM NaCl
[4] = molecular target: EsxUmt with C-terminal His6 tag (expressed from pMAPLe3) (M. tuberculosis H37Rv) (UniProt I6Y3I6); assay: pull-down; […]; buffer 4: 50 mM HEPES, […]
[5] = molecular target: EsxUmt with C-terminal His6 tag (expressed from pMAPLe3) (M. tuberculosis H37Rv) (UniProt I6Y3I6); assay: pull-down; […]; buffer 3: 50 mM HEPES, pH 7.5, 1 M NaCl
[6] = molecular target: EsxUmt with C-terminal His6 tag (expressed from pMAPLe3) (M. tuberculosis H37Rv) (UniProt I6Y3I6); assay: pull-down; […]; buffer 1: 50 mM HEPES, pH 7.5 or pH 7.8, 300 mM NaCl

Measured: binding

EsxEmt after intracellular cleavage of MBP (expressed from pMAPLe3) (from UniProt P9WNH9 1-90)
binds: [1] | [2] | [3]

EsxTmt after intracellular cleavage of MBP (expressed from pMAPLe3) (from UniProt I6YC53 1-100)
binds: [4] | [5] | [6]
